# Several values for one entry are separate records, joined by “and”; a condition that tells them apart may be missing. Identical values can stand only once. Inconclusive means that the source gave no clear call. Such entries were picked first, then a sample of the others. For some assays here: Where the call is inconclusive, the potency comes from a doubtful curve fit. Activity calls are given as the source filed them. Unless noted, how the calls were made is not given here.
# Protein sequences, listed by entry. Tags and fused reporters are not part of them.
# UniProt P08183, whole entry, looked up: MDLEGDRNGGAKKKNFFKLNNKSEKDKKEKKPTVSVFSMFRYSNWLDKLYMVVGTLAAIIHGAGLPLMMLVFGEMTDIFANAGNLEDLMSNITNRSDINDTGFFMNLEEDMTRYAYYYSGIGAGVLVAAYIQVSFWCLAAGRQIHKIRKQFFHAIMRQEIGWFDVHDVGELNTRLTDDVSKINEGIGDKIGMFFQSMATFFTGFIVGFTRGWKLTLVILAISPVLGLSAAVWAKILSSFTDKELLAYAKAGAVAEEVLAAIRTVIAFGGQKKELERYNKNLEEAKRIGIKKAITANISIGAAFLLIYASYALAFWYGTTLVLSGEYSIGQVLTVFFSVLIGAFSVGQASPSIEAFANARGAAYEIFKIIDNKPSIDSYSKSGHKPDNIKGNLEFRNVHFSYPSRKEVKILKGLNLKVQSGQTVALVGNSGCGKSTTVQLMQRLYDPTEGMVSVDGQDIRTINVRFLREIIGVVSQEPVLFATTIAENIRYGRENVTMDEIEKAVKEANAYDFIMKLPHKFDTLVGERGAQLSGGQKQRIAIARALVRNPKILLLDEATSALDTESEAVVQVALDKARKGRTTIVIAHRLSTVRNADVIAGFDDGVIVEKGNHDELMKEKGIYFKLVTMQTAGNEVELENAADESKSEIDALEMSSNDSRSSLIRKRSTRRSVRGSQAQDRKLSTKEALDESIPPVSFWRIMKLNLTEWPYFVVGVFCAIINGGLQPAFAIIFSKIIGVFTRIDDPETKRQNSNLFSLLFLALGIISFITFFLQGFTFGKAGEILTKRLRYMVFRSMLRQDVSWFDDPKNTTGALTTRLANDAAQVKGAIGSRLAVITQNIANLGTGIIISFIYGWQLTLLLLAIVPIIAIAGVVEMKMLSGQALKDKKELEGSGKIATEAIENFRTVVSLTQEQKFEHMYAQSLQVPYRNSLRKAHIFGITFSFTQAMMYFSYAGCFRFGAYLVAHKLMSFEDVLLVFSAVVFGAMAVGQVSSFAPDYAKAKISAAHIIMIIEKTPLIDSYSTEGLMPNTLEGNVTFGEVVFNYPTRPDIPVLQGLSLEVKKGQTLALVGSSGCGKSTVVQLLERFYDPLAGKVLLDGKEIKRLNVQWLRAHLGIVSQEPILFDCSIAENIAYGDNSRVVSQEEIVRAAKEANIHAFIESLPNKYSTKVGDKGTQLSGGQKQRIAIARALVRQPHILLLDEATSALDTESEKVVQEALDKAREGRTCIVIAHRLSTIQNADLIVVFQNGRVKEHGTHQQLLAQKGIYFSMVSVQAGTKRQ
# Legend:
# [1] = growth inhibition of DIPG glioma cells, dose response, cell-based, SU-DIPG-XIII, MIPE5.0, CellTiter-Glo, qHTS (AID 1347064; cut-off not given, nearly all actives have AC50 up to about 23 µM;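 on AC50: cells exposed to compound for 48 hours before the viability read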); conditions: SU-DIPG-XIII viability, CellTiter-Glo ATP luminescence
# [2] = JHH-DIPG-1 glioma cell viability, MIPE5.0 library, CellTiter-Glo luminescence, qHTS (AID 1347067; cut-off not given, nearly all actives have AC50 up to about 26 µM;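 further: cells exposed to compound for 48 hours before readout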); conditions: JHH-DIPG-1 glioma viability, CellTiter-Glo ATP luminescence
# [3] = SU-DIPG-XXV glioma cell viability, MIPE5.0 library, qHTS (AID 1347068; cut-off not given, nearly all actives have IC50 up to about 30 µM;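 on IC50: cells exposed to compound for 48 hours before viability readout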)
# [4] = inhibitors of polyQ aggregate elongation, biochemical, solid-phase synthetic aggregates, QA3 (AID 1585); conditions: biotin-polyQ incorporation, at 100 µM, stronger effect = higher value
# [5] = polyglutamine aggregation reduction, turbidity readout, qthio, single concentration 25 µM screen (AID 1588); conditions: at 25 µM, stronger effect = lower value
# [6] = protection of motor neurons from glutamate death, cell-based, TUNEL DNA degradation staining, MNGlu (AID 1594); conditions: glutamate-induced death, at 1 µM, stronger effect = higher value
# [7] = enhancers of SMN2 over SMN1 splicing, cell-based, SMN2/SMN1 luciferase reporters (AID 1598); conditions: SMN2 vs SMN1 luciferase splicing reporter cells; at 10 µM; stronger effect = higher value
# [8] = target: ATP-dependent translocase ABCB1 (Homo sapiens) (UniProt P08183); test: MDR1 (ABCB1) efflux transporter inhibition, cell-based (AID 377; in the data active means fluorescence slope change above about 50%; inconclusive means mostly about 31% to 49%); conditions: MDR1-expressing cells, fluorescent substrate accumulation slope; stronger effect = higher value; concentration not given here
# [9] = viability loss in pontine glioma line – cell-based, SU-DIPG-XXV, MIPE5.0, CellTiter-Glo, qHTS, dose response (AID 1347065; cut-off not given, nearly all actives have AC50 up to about 26 µM;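 further: cells exposed to compound for 48 hours before ATP readout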); conditions: CellTiter-Glo ATP luminescence
# [10] = mitochondrial permeability transition inhibitors (AID 1580); conditions: isolated mitochondria, permeability transition inhibition; active call at 10 uM (0/1): at 10 µM, stronger effect = higher value
# [11] = SU-DIPG-VI glioma cell viability, MIPE4.0 library, CellTiter-Glo luminescence, qHTS (AID 1347066; cut-off not given, nearly all actives have AC50 up to about 30 µM;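 further: cells exposed to compound for 48 hours before readout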); conditions: CellTiter-Glo ATP luminescence
smiles,measurement,setting,value
Cc1ccc(-n2nc(C(C)(C)C)cc2NC(=O)NCc2cc(F)ccc2Oc2ccc3c(cnn3CCO)c2)cc1,AC50,[1],active: 6.61 µM
same,AC50,[2],inconclusive: 2.35 µM [cytotoxic]
same,IC50,[3],active: 18.6 µM
COc1cc2ncnc(Nc3ccc(O)c(Br)c3)c2cc1OC,AC50,[1],inconclusive: 7.42 µM [cytotoxic]
same,IC50,[3],inconclusive: 6.61 µM [cytotoxic]
Cn1nccc1Nc1nccc(-c2ccn([C@H](CO)c3ccc(Cl)c(F)c3)c(=O)c2)n1,AC50,[1],active: 10.5 µM
same,AC50,[2],active: 1.48 µM
same,outcome,[3],inconclusive
CC1=C(c2ccc(O)cc2)[C@H](c2ccc(OCCN3CCCCC3)cc2)Oc2cc(O)ccc21,AC50,[1],active: 18.6 µM
same,IC50,[3],inconclusive: 4.68 µM
CON(C)C(=O)N1N=C(c2cc(F)ccc2F)S[C@@]1(CCCN)c1ccccc1,AC50,[1],inconclusive: 0.0132 µM [cytotoxic]
same,AC50,[2],inconclusive: 0.00263 µM [cytotoxic]
same,IC50,[3],inconclusive: 0.0235 µM [cytotoxic]
CCCCNc1ncc2c(-c3ccc(CN4CCN(C)CC4)cc3)cn(C3CCC(O)CC3)c2n1 (configuration not stated),AC50,[1],active: 2.35 µM and active: 1.86 µM
same,IC50,[3],active: 3.32 µM and inconclusive: 1.48 µM [cytotoxic]
O=[N+]([O-])c1ccc(-c2nc(-c3ccc(F)cc3)c(-c3ccncc3)[nH]2)cc1,AC50,[1],active: 18.6 µM
same,AC50,[2],inconclusive: 29.5 µM [cytotoxic]
same,outcome,[3],inactive
CN(N=O)C(=O)N[C@@H]1[C@@H](O)[C@H](O)[C@@H](CO)O[C@@H]1O,inhibition,[4],inconclusive: -11%
same,aggregation (% of control),[5],inconclusive: 101%
same,protection,[6],inconclusive: 9%
same,SMN2/SMN1 luciferase ratio,[7],inconclusive: 1.16
same,outcome,[1],inactive
same,outcome,[2],inactive
CCc1nc(C(N)=O)c(Nc2ccc(N3CCC(N4CCN(C)CC4)CC3)c(OC)c2)nc1NC1CCOCC1,AC50,[1],active: 1.18 µM
same,IC50,[3],inconclusive: 1.18 µM [cytotoxic]
Nc1ccc(/C=C/C(=O)NCc2cc3cc(-c4ccc(C(=O)N5CCC(F)(F)CC5)cc4)cc(-c4ccc(F)cc4)c3o2)cn1,AC50,[1],active: 0.372 µM
same,IC50,[3],inconclusive: 0.661 µM [cytotoxic]
Fc1ccc2[nH]ccc2c1-c1nc(N2CCOCC2)c2sc(CN3CCN(CC4CC4)CC3)cc2n1,AC50,[1],inconclusive: 37.2 µM [cytotoxic]
same,IC50,[3],inconclusive: 33.2 µM [cytotoxic]
O=C(NOCCO)c1cc(CN2OCCCC2=O)c(F)c(F)c1Nc1ccc(I)cc1F,AC50,[1],active: 0.148 µM
same,outcome,[3],inconclusive
CN1CCCN=C1/C=C/c1cccs1,fluorescence slope change,[8],inconclusive: 46.1%
same,AC50,[1],inconclusive: 0.00118 µM
CCCc1cc(C(=O)N[C@H](Cc2ccc(-c3cccc(OC(F)(F)F)c3)nc2)C(=O)N[C@@H]2CCNC2)sc1C,AC50,[1],active: 16.6 µM
same,IC50,[3],inconclusive: 33.2 µM [cytotoxic]
NC(=O)c1nc(F)c[nH]c1=O,AC50,[9],inconclusive: 1.86 µM
COc1ccc(-c2cc(C(O)C3CCCCN3)c3ccccc3n2)cc1 (configuration not stated),AC50,[1],active: 16.6 µM
same,AC50,[2],active: 7.42 µM
same,IC50,[3],inconclusive: 29.5 µM [cytotoxic]
Cc1c(F)cc(C(=O)NC2CC2)cc1-c1ccc(C(=O)NCC(C)(C)C)cn1,AC50,[9],inconclusive: 0.0833 µM [cytotoxic]
CNC(=O)[C@H]1O[C@@H](n2cnc3c(NCc4cccc(I)c4)nc(Cl)nc32)[C@H](O)[C@@H]1O,AC50,[9],inconclusive: 29.5 µM [cytotoxic]
same,outcome,[3],inactive
C[C@@]12C(=O)OC(=O)[C@]1(C)[C@H]1CC[C@@H]2O1,IC50,[3],active: 2.95 µM
N#Cc1c(N)nc(N)nc1N[C@H](c1nc2c(F)ccc(Cl)c2c(=O)n1-c1cccnc1)C1CC1,AC50,[9],active: 11.8 µM
same,AC50,[2],inconclusive: 7.42 µM [cytotoxic]
same,IC50,[3],inconclusive: 10.5 µM [cytotoxic]
CC[C@@H](C(=O)C(C)[C@@H](O)[C@H](C)CCc1ccc(C)c(O)c1C(=O)O)C1OC(CC)(C2CC[C@](O)(CC)[C@H](C)O2)C[C@@H]1C (some centres not stated),EC50,[10],active: 0.1 µM
same,inhibition,[4],inconclusive: 4.71%
same,aggregation (% of control),[5],inconclusive: 101%
same,protection,[6],inconclusive: 4%
same,SMN2/SMN1 luciferase ratio,[7],inconclusive: 1.03
c1cc(-c2cnn3cc(-c4ccc(N5CCNCC5)cc4)cnc23)c2cccnc2c1,AC50,[2],inconclusive: 8.33 µM [cytotoxic]
same,IC50,[3],active: 9.34 µM
COc1cc(OC)cc(N(CCNC(C)C)c2ccc3ncc(-c4cnn(C)c4)nc3c2)c1,AC50,[2],inconclusive: 0.118 µM [cytotoxic]
same,IC50,[3],inconclusive: 0.166 µM [cytotoxic]
C[C@@H]1Cc2c([nH]c3ccccc23)[C@@H](c2c(F)cc(/C=C/C(=O)O)cc2F)N1CC(C)(C)F,AC50,[9],inconclusive: 33.2 µM [cytotoxic]
same,AC50,[2],inconclusive: 33.2 µM [cytotoxic]
same,IC50,[3],inconclusive: 29.5 µM [cytotoxic]
Nc1nc(N)c2nc(-c3cccc(Cl)c3)c(N)nc2n1,IC50,[3],inconclusive: 11.8 µM
NCCCCCCNS(=O)(=O)c1cccc2c(Cl)cccc12,active call at 10 uM (0/1),[10],inconclusive: 1
same,inhibition,[4],inconclusive: -16.5% and inconclusive: -10.9% and inconclusive: 9.77%
same,aggregation (% of control),[5],inconclusive: 107% and inconclusive: 128% and inconclusive: 94.2%
same,protection,[6],inconclusive: -2% and inconclusive: 1%
same,SMN2/SMN1 luciferase ratio,[7],inconclusive: 1.05 and inconclusive: 1.07 and inconclusive: 1.14
CCN(CC)CCNc1ccc(C)c2sc3ccccc3c(=O)c12,AC50,[2],active: 18.6 µM
same,IC50,[3],inconclusive: 29.5 µM [cytotoxic]
C[C@H]1Oc2cc(cnc2N)-c2c(nn(C)c2C#N)CN(C)C(=O)c2ccc(F)cc21,AC50,[2],inconclusive: 2.35 µM [cytotoxic]
same,IC50,[3],inconclusive: 9.34 µM [cytotoxic]
Cc1ccc(Sc2ccccc2N2CCNCC2)c(C)c1,AC50,[2],active: 9.34 µM
same,IC50,[3],inconclusive: 37.2 µM [cytotoxic]
CC1(C)C2CC[C@]3(C)C(C(=O)C=C4[C@@H]5C[C@@](C)(C(=O)O)CC[C@]5(C)CC[C@]43C)[C@@]2(C)CC[C@@H]1O (some centres not stated),active call at 10 uM (0/1),[10],inconclusive: -1
same,inhibition,[4],inconclusive: 26%
same,aggregation (% of control),[5],inconclusive: 119%
same,protection,[6],inconclusive: 1%
same,SMN2/SMN1 luciferase ratio,[7],inconclusive: 1.08
CCCCCCCOc1ccc(CCC(N)(CO)CO)cc1C(F)(F)F,IC50,[3],inconclusive: 37.2 µM [cytotoxic]
O=C(NOCCO)c1ccc2cncn2c1Nc1ccc(I)cc1F,AC50,[2],active: 0.105 µM
same,IC50,[3],inconclusive: 4.17 µM [cytotoxic]
CC(C)N(C[C@H]1O[C@@H](n2cnc3c(N)ncnc32)[C@H](O)[C@@H]1O)C1CC(CCc2nc3ccc(C(C)(C)C)cc3[nH]2)C1 (some centres not stated),AC50,[9],inconclusive: 0.0372 µM [cytotoxic]
same,outcome,[3],inactive
COc1ccc(CNC(=O)Nc2ncc([N+](=O)[O-])s2)cc1,AC50,[2],inconclusive: 26.3 µM [cytotoxic]
same,IC50,[3],inconclusive: 33.2 µM [cytotoxic]
CS(=O)(=O)c1ccc([C@@H](O)[C@@H](CO)NC(=O)C(Cl)Cl)cc1,inhibition,[4],inconclusive: 20%
same,aggregation (% of control),[5],inconclusive: 107%
same,SMN2/SMN1 luciferase ratio,[7],inconclusive: 0.81
same,outcome,[11],inactive
O=S(=O)(N=Cc1c(O)ccc2ccccc12)c1cccs1,AC50,[11],inconclusive: 18.7 µM [cytotoxic]
CN1C/C=C/CCOc2cccc(c2)-c2ccnc(n2)Nc2cccc(c2)C1,AC50,[2],active: 0.166 µM
same,IC50,[3],inconclusive: 11.8 µM [cytotoxic]
O=Nc1c(-c2c(O)[nH]c3cc(Br)ccc23)[nH]c2ccccc12,AC50,[2],active: 14.8 µM
same,IC50,[3],active: 10.5 µM
O=c1[nH]c(=O)n(C2C[C@@H](O)[C@@H](CO)O2)cc1F (some centres not stated),active call at 10 uM (0/1),[10],inconclusive: 1
same,inhibition,[4],inconclusive: 20.8%
same,aggregation (% of control),[5],inconclusive: 98.7%
same,protection,[6],inconclusive: 1%
same,SMN2/SMN1 luciferase ratio,[7],inconclusive: 1.25
CC[C@@H](C)Nc1cc(C(=O)NC2CC3CCC(C2)N3c2ccc(C(=O)C3CC3)cn2)c(C)cc1C(N)=O (some centres not stated),AC50,[2],active: 0.209 µM
same,IC50,[3],inconclusive: 0.332 µM [cytotoxic]
CCCCCCCCNC(C)C(O)c1ccc(SC(C)C)cc1 (configuration not stated),active call at 10 uM (0/1),[10],inconclusive: 1
same,inhibition,[4],inconclusive: -19.5%
same,aggregation (% of control),[5],inconclusive: 117%
same,protection,[6],inconclusive: 1%
same,SMN2/SMN1 luciferase ratio,[7],inconclusive: 1.03
Cc1cc(-c2cc(OC(=O)c3ccccc3)ccc2Cl)cc2nnc(Nc3ccc(OCCN4CCCC4)cc3)nc12,IC50,[3],inconclusive: 18.2 µM [cytotoxic]
CN1CCN(CCC=C2c3ccccc3Sc3ccc(S(=O)(=O)N(C)C)cc32)CC1,active call at 10 uM (0/1),[10],inconclusive: 1
same,inhibition,[4],inconclusive: -7.12%
same,aggregation (% of control),[5],inconclusive: 101%
same,protection,[6],inconclusive: -2%
same,SMN2/SMN1 luciferase ratio,[7],inconclusive: 0.94
CC(C)n1ncnc1-c1cn2c(n1)-c1ccc(O[C@@H](C)C(N)=O)cc1OCC2,AC50,[2],inconclusive: 0.661 µM [cytotoxic]
same,IC50,[3],inconclusive: 2.09 µM [cytotoxic]
CSc1ccc2c(c1)N(CCC1CCCCN1C)c1ccccc1S2 (configuration not stated),active call at 10 uM (0/1),[10],inconclusive: 1
same,inhibition,[4],inconclusive: 15%
same,aggregation (% of control),[5],inconclusive: 104%
same,protection,[6],inconclusive: 2%
same,SMN2/SMN1 luciferase ratio,[7],inconclusive: 1.21

# From PubChem BioAssay
